Data from the primary screen of doi:10.1371/journal.pone.0140310, rounded.

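The test systems are human melanoma cell lines, treated with two drugs together for 72 h and then stained and imaged. The read-out is cell count (nuclei) in % of the DMSO control; lower values mean stronger growth inhibition or killing. Concentrations were fixed for each drug; these are the higher of two levels. These are primary screening values without error estimates.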 An unselected part of the screen is shown. An entry leaves out what has no value listed here. A dash means that no value is listed here.

Drug key:
U73122, 2 µM: COc1ccc2c(c1)CCC1C2CCC2(C)C(NCCCCCCN3C(=O)C=CC3=O)CCC12 (centres undefined)
vorinostat, 0.4 µM: O=C(CCCCCCC(=O)Nc1ccccc1)NO
BMS-536924, 1 µM: Cc1cc(N2CCOCC2)cc2[nH]c(-c3c(NC[C@@H](O)c4cccc(Cl)c4)cc[nH]c3=O)nc12
SNS-032, 0.05 µM: CC(C)(C)c1cnc(CSc2cnc(NC(=O)C3CCNCC3)s2)o1
stibogluconate, 10 µM: O=C(O)[C@@H]1[O][Sb](=[O])([O][Sb]2(=[O])[O][C@H]([C@H](O)CO)[C@H](O)[C@H](C(=O)O)[O]2)[O][C@H]([C@H](O)CO)[C@@H]1O (some centres undefined)
darinaparsin, 2 µM: C[As](C)SC[C@H](NC(=O)CC[C@H](N)C(=O)O)C(=O)NCC(=O)O
sorafenib, 2 µM: CNC(=O)c1cc(Oc2ccc(NC(=O)Nc3ccc(Cl)c(C(F)(F)F)c3)cc2)ccn1
gemcitabine, 0.002 µM: Nc1ccn([C@@H]2O[C@H](CO)[C@@H](O)C2(F)F)c(=O)n1
pioglitazone, 10 µM: CCc1ccc(CCOc2ccc(CC3SC(=O)NC3=O)cc2)nc1 (centres undefined)

| Drugs | WM3619 | WM451Lu | COLO 829 | COLO 800 | C32 | COLO 792 |
|---|---|---|---|---|---|---|
| vorinostat + SNS-032 | 72.8 | 65.2 | 79.1 | 48.5 | 82.3 | 105 |
| sorafenib + stibogluconate | 99.2 | 88.0 | 95.9 | 118 | 94.0 | 122 |
| vorinostat + stibogluconate | 66.1 | 67.8 | 64.1 | 50.5 | 97.5 | 76.8 |
| stibogluconate + gemcitabine | 46.1 | 47.3 | 28.7 | 27.2 | 62.0 | 51.7 |
| pioglitazone + gemcitabine | 39.3 | 43.8 | 51.1 | 39.6 | 110 | 67.5 |
| BMS-536924 + gemcitabine | 64.1 | 87.9 | 82.8 | 53.3 | 101 | 49.3 |
| stibogluconate + pioglitazone | 94.9 | 111 | 103 | 99.4 | 87.8 | 113 |
| vorinostat + pioglitazone | 62.5 | 69.2 | 63.6 | 84.3 | 102 | 76.3 |
| vorinostat + BMS-536924 | 82.7 | 59.6 | 84.8 | 36.9 | 72.3 | 54.1 |
| pioglitazone + U73122 | 14.1 | 75.4 | 84.8 | 38.0 | 61.4 | 87.6 |
| gemcitabine + SNS-032 | 17.8 | 48.0 | 53.6 | 30.2 | 65.7 | 64.9 |
| vorinostat + sorafenib | 86.9 | 88.5 | 120 | 90.1 | 103 | 101 |
| darinaparsin + BMS-536924 | 80.6 | 63.7 | 104 | 27.9 | 75.0 | 46.7 |
| gemcitabine + vorinostat | 38.1 | 58.0 | 54.7 | 11.2 | 91.1 | 55.1 |
| stibogluconate + BMS-536924 | 107 | 90.1 | 138 | 43.6 | 90.8 | 53.8 |
| U73122 + darinaparsin | 99.5 | 67.2 | 97.8 | 54.4 | 95.5 | 113 |
| darinaparsin + SNS-032 | 68.4 | 41.3 | 98.2 | 63.8 | 74.0 | 56.5 |
| sorafenib + U73122 | 61.4 | 93.9 | 99.6 | 61.1 | 58.8 | 160 |
| pioglitazone + sorafenib | 91.5 | 97.6 | 88.6 | 175 | 99.8 | 97.1 |
| stibogluconate + U73122 | 105 | 89.3 | 96.5 | 85.8 | 77.2 | 116 |
| U73122 + vorinostat | 39.8 | 70.4 | 78.4 | 64.7 | 69.5 | 67.5 |
| darinaparsin + stibogluconate | 100 | 79.8 | 114 | 125 | 98.0 | 112 |
| U73122 + gemcitabine | 42.2 | 38.4 | 39.0 | 28.3 | 51.8 | 77.1 |
| darinaparsin + pioglitazone | 69.0 | 74.7 | 96.1 | 67.0 | 88.4 | 103 |
| stibogluconate + SNS-032 | 84.1 | 55.1 | 79.7 | 59.3 | 72.8 | 81.2 |
| darinaparsin + vorinostat | 79.5 | 70.6 | 67.0 | 49.8 | 99.2 | 79.8 |
| BMS-536924 + pioglitazone | 97.4 | 92.3 | 119 | 25.1 | 106 | 67.0 |
| BMS-536924 + sorafenib | 89.0 | 74.5 | 111 | 50.7 | 71.9 | 82.4 |
| sorafenib + gemcitabine | 49.7 | 49.2 | 56.8 | 20.3 | 82.7 | 70.3 |
| SNS-032 + BMS-536924 | - | 69.5 | 108 | 29.0 | 79.6 | 28.6 |

The first 3 entries again:

{"drugs": "vorinostat + SNS-032", "WM3619": 72.8, "WM451Lu": 65.2, "COLO 829": 79.1, "COLO 800": 48.5, "C32": 82.3, "COLO 792": 105}
{"drugs": "sorafenib + stibogluconate", "WM3619": 99.2, "WM451Lu": 88.0, "COLO 829": 95.9, "COLO 800": 118, "C32": 94.0, "COLO 792": 122}
{"drugs": "vorinostat + stibogluconate", "WM3619": 66.1, "WM451Lu": 67.8, "COLO 829": 64.1, "COLO 800": 50.5, "C32": 97.5, "COLO 792": 76.8}